# PubChem BioAssay AID504791, Drosophila RNAi Screening Center | 2011
# Purpose: 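Genes whose knock-down strengthens or weakens small-RNA reporter silencing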 (primary screen)
# Cell system: Drosophila S2-derived reporter cells
# Reagent: long dsRNA against Drosophila genes, about 150-250 ng dsRNA per well (siRNA assay); about 80-120 ng (miRNA assay)
# Duration: about 5 days (siRNA assay); about 4 days (miRNA assay)
# Conditions: copper sulfate induction of reporters: 25 µM (siRNA assay); 200 mM stated (miRNA assay), 1-2 days before reading
# Measurement: 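Per-well ratio of Renilla over firefly light, expressed relative to that plate's average ratio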
# Hit rule: 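a well was a first-pass pick when its plate-scaled ratio rose above 1.5 (siRNA assay) or 1.6 (miRNA assay), or dropped below 0.6; a gene counted only if two separate dsRNAs agreed on retest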
# In all, the deposit lists about 23,000 reagents; this is an unselected part of those with a known target gene and a result. Of all reagents, 199 (0.86%) were called active. 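Plate-scaled ratios behind the calls are not deposited; printed light signals are raw; many rows marked increased or decreased are still called inactive.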 A plus sign joins genes that one reagent is predicted to hit. Further read-outs or replicates are left out here. The record does not give: the direction of the score.
target,dsRNA,stable siRNA reporter change,miRNA reporter change,"stable assay Renilla, run 1 (luminescence)",activity call
PolE1 (GeneID 42758),DRSC16112,,,17682,inactive
CG11585 (GeneID 32365),DRSC19410,,,5006,inactive
Psc (GeneID 36431),DRSC07518,,,5898,inactive
CG1941 (GeneID 35718),DRSC06802,,,6007,inactive
CG14627 (GeneID 31063),DRSC18630,,,6152,inactive
CG10026 (GeneID 35226),DRSC02010,,,7515,inactive
Gclc (GeneID 53581),DRSC18666,,reporter ratio raised past the hit cutoff,5572,inactive
Cyp4ae1 (GeneID 31193),DRSC18455,,,8048,inactive
CG5404 (GeneID 41901),DRSC15793,,,4055,inactive
CG32845 (GeneID 318243),DRSC07867,,,6210,inactive
Cpr65Ax2 + Cpr65Ax1,DRSC10341,,,6482,inactive
Cpr65Ax2 + Cpr65Ax1,DRSC10344,,,6754,inactive
Aptx (GeneID 42322),DRSC15768,,,9853,inactive
CG7255 (GeneID 39662),DRSC10790,,,9542,inactive
CG31326 (GeneID 41728),DRSC16532,,,7338,inactive
Pif1 (GeneID 33567),DRSC00582,,,18692,inactive
Rpn12 (GeneID 39845),DRSC11275,reporter ratio raised past the hit cutoff,,6815,inactive
nol (GeneID 64867),DRSC21425,,,8611,inactive
CheB38b (GeneID 2768933),DRSC22874,,,3484,inactive
Ntmt (GeneID 36022),DRSC06624,,,7218,inactive
Pop5 (GeneID 39915),DRSC10074,,,7130,inactive
Mst77F (GeneID 40304),DRSC11871,,,7107,inactive
NimC1 (GeneID 34816),DRSC01879,,,7779,inactive
CG11099 (GeneID 37282),DRSC06034,,,7427,inactive
CG1523 (GeneID 43400),DRSC15033,,,7931,inactive
jb (GeneID 33032),DRSC20531,,,5596,inactive
tej (GeneID 36590),DRSC07219,,,6968,inactive
CG14860 (GeneID 41803),DRSC14983,,,6710,inactive
CG14605 (GeneID 40867),DRSC12549,,,6927,inactive
C3G (GeneID 31618),DRSC17745,,,5815,inactive
C3G (GeneID 31618),DRSC17929,,,7075,inactive
C3G (GeneID 31618),DRSC22329,,,9158,inactive
C3G (GeneID 31618),DRSC23077,,,5127,inactive
Ir7c (GeneID 31692),DRSC18007,,,6034,inactive
